Publication PMC12381239
Results are given in words; binding and its absence hold for the method and conditions named. In cells and extracts the contact can be indirect. Some binding calls cover weakened binding; strength is not graded here.

Protein sequences, listed by entry. Tags and fused reporters are not part of them.
UniProt Q13283: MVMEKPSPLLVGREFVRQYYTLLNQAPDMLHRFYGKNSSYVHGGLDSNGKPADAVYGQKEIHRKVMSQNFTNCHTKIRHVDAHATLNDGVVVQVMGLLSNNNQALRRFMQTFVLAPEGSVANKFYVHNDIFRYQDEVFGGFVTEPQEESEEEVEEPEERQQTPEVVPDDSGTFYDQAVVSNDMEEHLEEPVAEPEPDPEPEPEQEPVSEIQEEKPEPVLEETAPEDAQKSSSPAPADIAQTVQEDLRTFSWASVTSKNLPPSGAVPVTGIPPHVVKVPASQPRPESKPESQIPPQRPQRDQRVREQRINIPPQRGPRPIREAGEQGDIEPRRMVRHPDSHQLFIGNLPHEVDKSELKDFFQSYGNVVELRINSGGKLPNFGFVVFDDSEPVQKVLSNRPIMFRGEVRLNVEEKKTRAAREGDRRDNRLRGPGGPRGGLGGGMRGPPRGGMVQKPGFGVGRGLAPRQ

Target: T1, Pro-AEP (human) (UniProt Q99538)
T1 sequence: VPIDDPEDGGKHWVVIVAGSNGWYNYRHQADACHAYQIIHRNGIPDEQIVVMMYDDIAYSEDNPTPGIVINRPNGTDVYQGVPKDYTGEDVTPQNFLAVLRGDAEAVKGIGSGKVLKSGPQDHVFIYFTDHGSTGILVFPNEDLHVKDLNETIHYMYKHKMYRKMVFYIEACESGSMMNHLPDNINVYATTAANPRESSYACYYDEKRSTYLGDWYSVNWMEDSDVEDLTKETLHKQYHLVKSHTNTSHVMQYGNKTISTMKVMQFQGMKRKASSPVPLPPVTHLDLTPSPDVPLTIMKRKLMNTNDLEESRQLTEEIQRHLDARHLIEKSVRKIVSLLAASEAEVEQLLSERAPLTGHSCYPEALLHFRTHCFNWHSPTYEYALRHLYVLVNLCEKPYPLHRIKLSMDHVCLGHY
Test: co-IP; U2OS cells treated with cisplatin

With “Ras-GTPase-activating protein (GAP)-binding protein 1 (G3BP1) (from UniProt Q13283 1-466)” the binding was “binds”.
